Some results were stated once for a whole list of compounds, not compound by compound. Peptide text beside a SMILES is read from it.
Target: T1, human APJ receptor (hAPJ) (Homo sapiens, UniProt P35414)
T1 construct: expressed in transfected cells
T1 sequence (P35414 1-380): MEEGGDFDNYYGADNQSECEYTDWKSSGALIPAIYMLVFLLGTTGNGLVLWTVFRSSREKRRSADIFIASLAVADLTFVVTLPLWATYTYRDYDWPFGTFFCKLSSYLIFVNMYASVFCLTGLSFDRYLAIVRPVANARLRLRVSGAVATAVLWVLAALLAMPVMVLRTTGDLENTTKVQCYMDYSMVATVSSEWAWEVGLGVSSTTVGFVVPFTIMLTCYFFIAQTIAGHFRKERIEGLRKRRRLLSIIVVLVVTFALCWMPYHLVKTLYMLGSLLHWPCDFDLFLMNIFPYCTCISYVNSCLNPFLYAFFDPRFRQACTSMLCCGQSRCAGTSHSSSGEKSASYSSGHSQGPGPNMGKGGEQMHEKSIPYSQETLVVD
Assay: HTRF cAMP assay: inhibition of NKH477-stimulated cAMP in HEK cells stably expressing hAPJ
Type: cell-based
Conditions: HTRF cAMP Assay, per data of Table 6; read-out: EC50 (hAPJ), inhibition of cAMP production, bound stated
Method in brief: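 HEK cells stably expressing hAPJ, induced with 1 nG/mL doxycycline and seeded overnight at 40 k/well. cAMP read by HTRF competitive immunoassay using cryptate-labeled anti-cAMP antibody and d2-labeled cAMP.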

Work on CCCCCCCCCCCCCCCC(=O)N[C@@H](CC(=O)O)C(=O)N[C@H](C(=O)N[C@@H](Cc1c[nH]cn1)C(=O)N[C@@H](CCCNC(=N)N)C(=O)N[C@@H](CO)C(=O)N[C@@H](CO)C(=O)N[C@@H](CCC(=O)O)C(=O)N[C@H](CCCCN)C(=O)N[C@@H](CCCNC(=N)N)C(=O)N[C@@H](CCCNC(=N)N)C(=O)N[C@@H](CO)C(=O)N[C@@H](C)C(=O)N[C@@H](CC(=O)O)C(=O)N[C@@H](CCC(N)=O)C(=O)N[C@@H](Cc1ccccc1)C(=O)N[C@H](C(N)=O)[C@@H](C)CC)C(C)C [Compound 36] (HELM PEPTIDE1{[CCCCCCCCCCCCCCCC(=O)[*:2]].D.V.H.R.S.S.E.[dK].R.R.S.A.D.Q.F.I.[am]}$$$$V2.0) yielded an EC50 of at most 50 nM.

— patent US20160159861A1, “APJ Receptor Compounds” (priority 2013, published 2016)
